PubChem BioAssay AID1259308 – NCATS, 2017
The whole screen tested about 59,000 reagents; this is an unselected part. About 1,510 of them (2.6%) were called active. 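Calls use total luciferase alone and ignore viability, so some active siRNAs may act by altering cell number.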 The numbers tell different reagents against one gene apart. Not all columns of the deposit are shown.

- Test: 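Genes whose loss raises luciferase production in HEK293 cells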 (primary screen)
- Cells: human HEK293 embryonic kidney cells stably expressing firefly luciferase (HEK-CMV-Luc2-Hygro)
- Reagents: single siRNA against human genes, 0.8 pmol siRNA per well
- Timing: 72 h
- Detection: 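Reporter luminescence and viable-cell signal on separate replicate plates, given as percent of non-targeting control and median/MAD z-scores, plus per-cell luciferase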
- Scale: total luciferase, z-score: higher = more reporter protein produced
- Call rule: 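Active when the median/MAD z-score for overall luciferase is greater than 3; a gene was taken forward for validation with new siRNAs if at least two of its three siRNAs passed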
- Calls: active = raised luciferase; inactive = no rise

For WNK3 #1, the values are total luciferase, z-score 0.0519; inactive.
For WNK3 #2, the entry reads total luciferase, z-score -0.409; inactive.
Knock-down of WNK3 #3 gave: total luciferase, z-score -0.589; inactive.
After knock-down of LINC01020 #1, the record shows total luciferase, z-score -1.32; inactive.
LINC01020 #2 scored total luciferase, z-score -0.966; inactive.
LINC01020 #3 gave total luciferase, z-score -0.259; inactive.
Silencing of DCST2 #1 resulted in: total luciferase, z-score 3.02; active.
Against DCST2 #2, the entry reads total luciferase, z-score 1.05; inactive.
DCST2 #3 scored total luciferase, z-score 0.192; inactive.
After knock-down of SF3B2 #1, the record shows total luciferase, z-score -0.628; inactive.
Against SF3B2 #2 the deposit lists total luciferase, z-score 3.05; active.
SF3B2 #3 scored total luciferase, z-score 2.75; inactive.
